{
  "sequences": {"note": "Amino acid sequences for entries named in this document (tags omitted). A change or cut given only in a name is not applied to a line headed by its entry.", "UniProt Q5S007": "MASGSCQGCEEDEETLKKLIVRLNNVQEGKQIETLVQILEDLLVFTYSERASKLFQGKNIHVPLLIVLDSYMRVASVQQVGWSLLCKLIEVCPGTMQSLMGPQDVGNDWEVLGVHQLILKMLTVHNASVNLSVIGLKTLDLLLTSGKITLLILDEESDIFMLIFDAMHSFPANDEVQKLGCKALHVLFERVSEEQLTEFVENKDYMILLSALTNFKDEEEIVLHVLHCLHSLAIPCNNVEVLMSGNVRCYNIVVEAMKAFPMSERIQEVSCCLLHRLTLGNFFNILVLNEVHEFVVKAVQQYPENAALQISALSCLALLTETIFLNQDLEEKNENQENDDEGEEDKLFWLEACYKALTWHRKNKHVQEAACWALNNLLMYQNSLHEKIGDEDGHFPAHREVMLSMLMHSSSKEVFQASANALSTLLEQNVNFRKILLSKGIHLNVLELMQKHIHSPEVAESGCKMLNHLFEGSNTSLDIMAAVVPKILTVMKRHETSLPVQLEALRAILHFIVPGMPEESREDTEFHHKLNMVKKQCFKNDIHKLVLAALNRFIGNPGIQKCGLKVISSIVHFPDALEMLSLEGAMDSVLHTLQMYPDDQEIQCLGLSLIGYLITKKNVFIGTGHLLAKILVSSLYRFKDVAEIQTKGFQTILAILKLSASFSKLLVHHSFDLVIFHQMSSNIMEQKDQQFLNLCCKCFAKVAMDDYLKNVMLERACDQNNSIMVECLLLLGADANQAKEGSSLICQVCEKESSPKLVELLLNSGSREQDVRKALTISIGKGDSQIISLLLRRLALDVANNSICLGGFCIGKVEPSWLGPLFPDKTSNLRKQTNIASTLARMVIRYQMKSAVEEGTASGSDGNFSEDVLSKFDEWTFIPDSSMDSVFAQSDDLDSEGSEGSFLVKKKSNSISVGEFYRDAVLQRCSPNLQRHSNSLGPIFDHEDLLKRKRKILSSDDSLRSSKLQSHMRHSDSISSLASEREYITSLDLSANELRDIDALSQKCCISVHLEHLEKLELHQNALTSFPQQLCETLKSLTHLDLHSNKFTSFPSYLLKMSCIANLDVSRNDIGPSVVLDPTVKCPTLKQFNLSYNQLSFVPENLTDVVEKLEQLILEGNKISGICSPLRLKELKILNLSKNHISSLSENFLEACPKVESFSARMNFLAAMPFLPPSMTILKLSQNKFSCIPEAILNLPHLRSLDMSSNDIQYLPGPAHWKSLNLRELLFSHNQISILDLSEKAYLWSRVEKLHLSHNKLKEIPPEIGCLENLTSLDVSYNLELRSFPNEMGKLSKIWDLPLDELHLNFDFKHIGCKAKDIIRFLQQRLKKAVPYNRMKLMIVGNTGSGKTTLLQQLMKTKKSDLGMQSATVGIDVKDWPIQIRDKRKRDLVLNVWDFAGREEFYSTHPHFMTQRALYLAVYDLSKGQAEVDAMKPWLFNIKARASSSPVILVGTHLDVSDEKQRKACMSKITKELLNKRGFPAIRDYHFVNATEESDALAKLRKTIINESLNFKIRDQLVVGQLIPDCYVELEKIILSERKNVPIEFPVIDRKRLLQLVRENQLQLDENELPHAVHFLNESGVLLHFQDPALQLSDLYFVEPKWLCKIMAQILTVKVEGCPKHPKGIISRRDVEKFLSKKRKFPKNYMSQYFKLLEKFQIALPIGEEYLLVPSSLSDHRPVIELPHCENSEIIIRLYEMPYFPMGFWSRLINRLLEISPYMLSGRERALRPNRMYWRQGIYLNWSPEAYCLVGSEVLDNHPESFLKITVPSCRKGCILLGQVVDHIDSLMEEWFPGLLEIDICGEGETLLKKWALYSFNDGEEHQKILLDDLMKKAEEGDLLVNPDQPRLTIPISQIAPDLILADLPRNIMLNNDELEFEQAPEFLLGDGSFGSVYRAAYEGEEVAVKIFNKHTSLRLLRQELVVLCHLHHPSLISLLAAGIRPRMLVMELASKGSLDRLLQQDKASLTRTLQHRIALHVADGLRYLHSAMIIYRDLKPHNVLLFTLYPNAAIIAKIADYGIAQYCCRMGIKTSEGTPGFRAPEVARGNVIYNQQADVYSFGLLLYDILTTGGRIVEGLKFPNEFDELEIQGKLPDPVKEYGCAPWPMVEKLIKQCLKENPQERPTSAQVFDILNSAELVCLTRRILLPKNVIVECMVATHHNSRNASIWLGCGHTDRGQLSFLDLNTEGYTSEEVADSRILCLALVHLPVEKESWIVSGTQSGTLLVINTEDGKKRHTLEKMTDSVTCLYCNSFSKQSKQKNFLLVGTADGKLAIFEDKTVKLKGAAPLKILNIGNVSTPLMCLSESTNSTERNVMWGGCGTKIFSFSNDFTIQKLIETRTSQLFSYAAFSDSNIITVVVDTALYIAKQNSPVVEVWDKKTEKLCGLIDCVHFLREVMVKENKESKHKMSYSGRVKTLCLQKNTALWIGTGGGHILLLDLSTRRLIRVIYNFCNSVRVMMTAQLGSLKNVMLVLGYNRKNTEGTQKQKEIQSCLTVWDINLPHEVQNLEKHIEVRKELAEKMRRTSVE"},
  "source": "patent US12384788B2",
  "about": "“1,4-dihydrobenzo[d]pyrazolo[3,4-f][1,3]diazepine derivatives and related compounds as LRRK2, NUAK1 and/or TYK2 kinase modulators for the treatment of e.g. autoimmune disease” (Origenis GMBH, priority 2019, dated 2025)",
  "note": "Some results were stated once for a whole list of compounds, not compound by compound.",
  "data": [
    {"target": "T1, LRRK2 (Wt) and LRRK2 (G2019) (Homo sapiens, UniProt Q5S007)", "T1 construct": "fused on or other part: GST tag, inferred from the Eu-Anti-GST antibody used for detection", "assay": "TR-FRET LanthaScreen Eu Kinase Binding Assay, LRRK2", "settings": "wt human LRRK2 or G2019S human LRRK2, catalytic site; one bin printed for both; read-out: IC50, inhibitory activity toward LRRK2 (Wt) and LRRK2 (G2019)", "units": {"IC50": "nM"}, "values": [
      {"compound": "5-(2,6-difluoro-3-methoxyphenyl)-9-methyl-2,4-dihydrobenzo[d]pyrazolo[3,4-f][1,3]diazepine [Compound 180]", "IC50": "< 10"},
      {"compound": "5-(2,6-difluorophenyl)-9-(trifluoromethyl)-1,4-dihydropyrazolo[4,3-d]pyrido [4,3-f][1,3]diazepine [Compound 151]", "IC50": "< 10"},
      {"compound": "5-(2,6-difluorophenyl)-N-(2-fluoroethyl)-1,6-dihydrobenzo[d]pyrazolo[3,4-f][1,3]diazepin-9-amine [Compound 115]", "IC50": "< 10"},
      {"compound": "Fc1cccc(F)c1C1=Nc2cn[nH]c2-c2ccccc2N1", "note": "[Compound 8, 5-(2,6-difluorophenyl)-1,6-dihydrobenzo[d]pyrazolo[3,4-f][1,3]diazepine]", "IC50": "< 10"},
      {"compound": "Fc1ccc(Cl)c(F)c1C1=Nc2ccccc2-c2[nH]ncc2N1", "note": "[Compound 18, 5-(3-chloro-2,6-difluorophenyl)-1,4-dihydrobenzo[d]pyrazolo[3,4-f][1,3]diazepine]", "IC50": "< 10"},
      {"compound": "Fc1cccc(F)c1C1=Nc2ccc(Cl)cc2-c2[nH]ncc2N1", "note": "[Compound 25, 9-chloro-5-(2,6-difluorophenyl)-1,4-dihydrobenzo[d]pyrazolo[3,4-f][1,3]diazepine]", "IC50": "< 10"},
      {"compound": "Fc1cccc(Cl)c1C1=Nc2ccccc2-c2[nH]ncc2N1", "note": "[Compound 27, 5-(2-chloro-6-fluorophenyl)-1,4-dihydrobenzo[d]pyrazolo[3,4-f][1,3]diazepine]", "IC50": "< 10"},
      {"compound": "Fc1ccc2c(c1)-c1[nH]ncc1N=C(c1c(F)cccc1F)N2", "note": "[Compound 33, 5-(2,6-difluorophenyl)-9-fluoro-1,6-dihydrobenzo[d]pyrazolo[3,4-f][1,3]diazepine]", "IC50": "< 10"},
      {"compound": "Fc1ccc2c(c1)-c1[nH]ncc1N=C(c1c(F)cccc1Cl)N2", "note": "[Compound 34, 5-(2-chloro-6-fluorophenyl)-9-fluoro-1,6-dihydrobenzo[d]pyrazolo[3,4-f][1,3]diazepine]", "IC50": "< 10"},
      {"compound": "Cc1ccc2c(c1)-c1[nH]ncc1N=C(c1c(F)cccc1Cl)N2", "note": "[Compound 35, 5-(2-chloro-6-fluorophenyl)-9-methyl-1,6-dihydrobenzo[d]pyrazolo[3,4-f][1,3]diazepine]", "IC50": "< 10"},
      {"compound": "Cc1ccc2c(c1)-c1[nH]ncc1N=C(c1c(F)cccc1F)N2", "note": "[Compound 36, 5-(2,6-difluorophenyl)-9-methyl-1,6-dihydrobenzo[d]pyrazolo[3,4-f][1,3]diazepine]", "IC50": "< 10"},
      {"compound": "Fc1cccc(Cl)c1C1=Nc2ccc(Cl)cc2-c2[nH]ncc2N1", "note": "[Compound 37, 9-chloro-5-(2-chloro-6-fluorophenyl)-1,4-dihydrobenzo[d]pyrazolo[3,4-f][1,3]diazepine]", "IC50": "< 10"},
      {"compound": "COc1ccc2c(c1)-c1[nH]ncc1N=C(c1c(F)cccc1F)N2", "note": "[Compound 38, 5-(2,6-difluorophenyl)-9-methoxy-1,6-dihydrobenzo[d]pyrazolo[3,4-f][1,3]diazepine]", "IC50": "< 10"},
      {"compound": "COc1ccc2c(c1)-c1[nH]ncc1N=C(c1c(F)cccc1Cl)N2", "note": "[Compound 39, 5-(2-chloro-6-fluorophenyl)-9-methoxy-1,6-dihydrobenzo[d]pyrazolo[3,4-f][1,3]diazepine]", "IC50": "< 10"},
      {"compound": "Fc1cccc(F)c1C1=Nc2cn[nH]c2-c2cc(OC(F)(F)F)ccc2N1", "note": "[Compound 40, 5-(2,6-difluorophenyl)-9-(trifluoromethoxy)-1,6-dihydrobenzo[d]pyrazolo[3,4-f][1,3]diazepine]", "IC50": "< 10"},
      {"compound": "Fc1cccc(Cl)c1C1=Nc2cn[nH]c2-c2cc(OC(F)(F)F)ccc2N1", "note": "[Compound 41, 5-(2-chloro-6-fluorophenyl)-9-(trifluoromethoxy)-1,6-dihydrobenzo[d]pyrazolo[3,4-f][1,3]diazepine]", "IC50": "< 10"},
      {"compound": "Fc1cccc(F)c1C1=Nc2cn[nH]c2-c2cc(OC(F)F)ccc2N1", "note": "[Compound 42, 9-(difluoromethoxy)-5-(2,6-difluorophenyl)-1,6-dihydrobenzo[d]pyrazolo[3,4-f][1,3]diazepine]", "IC50": "< 10"},
      {"compound": "Fc1cccc(Cl)c1C1=Nc2cn[nH]c2-c2cc(OC(F)F)ccc2N1", "note": "[Compound 43, 5-(2-chloro-6-fluorophenyl)-9-(difluoromethoxy)-1,6-dihydrobenzo[d]pyrazolo[3,4-f][1,3]diazepine]", "IC50": "< 10"},
      {"compound": "CCc1ccc2c(c1)-c1[nH]ncc1N=C(c1c(F)cccc1F)N2", "note": "[Compound 44, 5-(2,6-difluorophenyl)-9-ethyl-1,6-dihydrobenzo[d]pyrazolo[3,4-f][1,3]diazepine]", "IC50": "< 10"},
      {"compound": "CCc1ccc2c(c1)-c1[nH]ncc1N=C(c1c(F)cccc1Cl)N2", "note": "[Compound 45, 5-(2-chloro-6-fluorophenyl)-9-ethyl-1,6-dihydrobenzo[d]pyrazolo[3,4-f][1,3]diazepine]", "IC50": "< 10"},
      {"compound": "Fc1cccc(F)c1C1=Nc2cn[nH]c2-c2cc(C(F)(F)F)ccc2N1", "note": "[Compound 46, 5-(2,6-difluorophenyl)-9-(trifluoromethyl)-1,6-dihydrobenzo[d]pyrazolo[3,4-f][1,3]diazepine]", "IC50": "< 10"},
      {"compound": "Fc1cccc(Cl)c1C1=Nc2cn[nH]c2-c2cc(C(F)(F)F)ccc2N1", "note": "[Compound 47, 5-(2-chloro-6-fluorophenyl)-9-(trifluoromethyl)-1,6-dihydrobenzo[d]pyrazolo[3,4-f][1,3]diazepine]", "IC50": "< 10"},
      {"compound": "COc1ccc2c(c1)N=C(c1c(F)cccc1F)Nc1cn[nH]c1-2", "note": "[Compound 49, 5-(2,6-difluorophenyl)-8-methoxy-1,4-dihydrobenzo[d]pyrazolo[3,4-f][1,3]diazepine]", "IC50": "< 10"},
      {"compound": "OCc1ccc2c(c1)-c1[nH]ncc1N=C(c1c(F)cccc1F)N2", "note": "[Compound 50, (5-(2,6-difluorophenyl)-1,6-dihydrobenzo[d]pyrazolo[3,4-f][1,3]diazepin-9-yl)methanol]", "IC50": "< 10"},
      {"compound": "FCc1ccc2c(c1)-c1[nH]ncc1N=C(c1c(F)cccc1F)N2", "note": "[Compound 51, 5-(2,6-difluorophenyl)-9-(fluoromethyl)-1,6-dihydrobenzo[d]pyrazolo[3,4-f][1,3]diazepine]", "IC50": "< 10"},
      {"compound": "Cn1cc2c(n1)N=C(c1c(F)cccc1F)Nc1cn[nH]c1-2", "note": "[Compound 52, 5-(2,6-difluorophenyl)-8-methyl-4,8-dihydro-1H-dipyrazolo[3,4-d:3′,4′-f][1,3]diazepine]", "IC50": "< 10"},
      {"compound": "Fc1cccc(F)c1C1=Nc2ccncc2-c2[nH]ncc2N1", "note": "[Compound 53, 5-(2,6-difluorophenyl)-1,4-dihydropyrazolo[4,3-d]pyrido[3,4-f][1,3]diazepine]", "IC50": "< 10"},
      {"compound": "Cc1cnc2c(c1)-c1[nH]ncc1N=C(c1c(F)cccc1F)N2", "note": "[Compound 61, 5-(2,6-difluorophenyl)-9-methyl-1,6-dihydropyrazolo[4,3-d]pyrido[3,2-f][1,3]diazepine]", "IC50": "< 10"},
      {"compound": "Fc1cccc(F)c1C1=Nc2cn[nH]c2-c2cc(C(F)(F)F)cnc2N1", "note": "[Compound 63, 5-(2,6-difluorophenyl)-9-(trifluoromethyl)-1,6-dihydropyrazolo[4,3-d]pyrido[3,2-f][1,3]diazepine]", "IC50": "< 10"},
      {"compound": "Fc1cccc(F)c1C1=Nc2cn[nH]c2-c2cc(Cl)cnc2N1", "note": "[Compound 64, 9-chloro-5-(2,6-difluorophenyl)-1,6-dihydropyrazolo[4,3-d]pyrido[3,2-f][1,3]diazepine]", "IC50": "< 10"},
      {"compound": "Fc1cccc(F)c1C1=Nc2cn[nH]c2-c2cc(C3=CCOCC3)cnc2N1", "note": "[Compound 67, 5-(2,6-difluorophenyl)-9-(3,6-dihydro-2H-pyran-4-yl)-1,6-dihydropyrazolo[4,3-d]pyrido[3,2-f][1,3]diazepine]", "IC50": "< 10"}
    ]}
  ]
}
